Measurements from patent US11590185B2, “Antioxidant composition comprising Sargassum serratifolium extract or fraction thereof as active ingredient” (PUKYONG NATIONAL UNIVERSITY INDUSTRY-UNIVERSITY COOPERATION …, priority 2015, dated 2023).
Some results were stated once for a whole list of compounds, not compound by compound.

Tested on: 661W photoreceptor cells
Experiment: Cytotoxicity on 661W photoreceptor cells (MTS)
Assay type: cell-based, mouse
Settings: 661W cells, separated compounds
Experimental: (§1) 661W photoreceptor cells were cultured in 96-wells at a concentration of 3×10^3 cells/well. Then, they were treated with 1.0 μg/ml Sargassum serratifolium ethanol extract or compounds separated therefrom (sargahydroquinoic acid (SHQ), sargachromenol (SCM), and sargaquinoic acid (SQA)) at a concentration of 1.0 μM and cultured for 24 hours. Then, the medium was replaced with medium containing MTS reagent. Then, they were cultured for 1 hour. Cell viability was measured by measuring the absorbance at 490 nm and comparing the results. The cell viability thereof was analyzed by Celltiter^96 Aqueous One solution assay kit (Promega).
as §1, with “viability” for “viability thereof”

Row | Structure (SMILES) | concentration up to which there was no cytotoxicity
1 | CC(C)=CCC/C(=C/CC/C(C)=C/CC/C(C)=C/Cc1cc(O)cc(C)c1O)C(=O)O [sargahydroquinoic acid] | ≤ 2500 nM
2 | CC(C)=CCC/C(=C/CC/C(C)=C/CCC1(C)C=Cc2cc(O)cc(C)c2O1)C(=O)O (centres unmarked) [sargachromenol] | ≤ 2500 nM
